## Library screen at single concentrations

From ChEMBL document CHEMBL3988442, “University of Dundee, Small-Polar-MMV Screening Library” (2021).

The filed quantity is “Percent Effect” (%).
How 0% and 100% were set is not recorded. Most values in the screen are low, and negative values occur.
This is an unselected part of the compounds tested.

Mtb cholesterol medium: 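Whole-cell growth test on Mycobacterium tuberculosis, read after 4 days in a medium based on cholesterol and the lipid DPPC; the read-out is not stated. Concentration: 500 µM. Higher reads as more growth inhibition (inferred: compounds with an IC50 in retests scored well above the rest). Size under these conditions: about 18,000 compounds, about 900 of them at 50% or above in at least one test.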
Mtb glucose medium: 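Whole-cell growth test on Mycobacterium tuberculosis, read after 3 days in glucose-containing 7H9 medium; the read-out is not stated. Concentration: 500 µM. Direction is inferred from retests: higher values go with more growth inhibition. Size under these conditions: about 18,000 compounds, about 1,400 of them at 50% or above in at least one test.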

SMILES	Mtb cholesterol medium	Mtb glucose medium
CCCn1c(SCC(=O)N2CCCCCC2)n[nH]c1=O	7.611%	27.25%
CS(=O)(=O)CCN1C(=O)c2cc(Cl)c(Cl)cc2C1=O	-21.85%	-4.834%
O=C(CC1CCCNCC1)N1CCCC1 (stereo unspecified)	-14%	-7.368%
c1ccc(OCCCNCc2ccsc2)nc1	40.98%	34.12%
CS(=O)(=O)CCn1ccnc1-c1ccc(Cl)s1	-7.666%	14.47%
CCn1ccc(CNC(=O)CCn2cc(Br)c(C)n2)n1	20.04%	32.59%
[H][C@]12CNC[C@]([H])(CN(S(=O)(=O)c3ccc(F)cc3)C1)O2	40.12%	-0.08804%
CN1CCN(S(=O)(=O)c2cccc3nonc23)CC1	1.61%	2.95%
CN(Cc1cccnc1)CC1(CO)CC1	-11.93%	3.425%
Cc1nc(NC(=O)Nc2ccc(N(C)C)nc2)oc1C	-43.57%	-9.212%
CNCc1csc(C(C)OC)n1 (stereo unspecified)	7.824%	7.558%
CC(c1ccon1)N(C)C(=O)c1cccc(N)n1 (stereo unspecified)	-6.159%	-2.205%
O[C@H]1C[C@@H](c2cc(NCc3nc[nH]n3)ncn2)C1	13.74%	17.79%
O=C(NCC1CCN(C2CC2)C1)Nc1ccccn1 (stereo unspecified)	19.46%	19.7%
Cc1oncc1C(=O)NCC(C)Oc1cccnc1 (stereo unspecified)	8.346%	23.43%
CCc1[nH]c(C(C)(N)CC)nc(=O)c1C (stereo unspecified)	6.136%	3.893%
COc1ccc(CCSc2nnc[nH]2)cc1	77.17%	71.36%
Cc1nc(NC(=O)c2ccc3c(c2)NC(=O)CS3)n[nH]1	-3.382%	-7.969%
CC1(C)COCCN1C(=O)c1cccc(NC(N)=O)c1	1.205%	11.97%
Cc1cc(C)c(NC(=O)N[C@@H]2CCNC[C@H]2O)c(Cl)c1	7.032%	21.29%
CNCc1cc(C2CC2)n[nH]1	7.729%	15.51%
CCC(CC)(CC)SCC(=O)N1CCNC(=O)C1	-22.88%	-8.512%
CCOc1ccc2cc(S(=O)(=O)NCCO)ccc2c1	111.5%	101.6%
CN(CCc1ccccn1)CCN1CCCC1=O	12.66%	2.813%
CC(C)NC(=O)CN(C)CC(=O)NC1(C#N)CCCC1	-9.349%	2.018%
Cc1cc(N2CCCCC2)nc(CO)n1	13.01%	14.69%
CSc1ccc(CNC(=O)N[C@@H]2C=C[C@H](CO)C2)cc1	-11.2%	-21.44%
Cc1cc(C)c(CNC(=O)C2(C#N)CCCC2)c(=O)[nH]1	-4.002%	6.051%
O=C(C1CCNCC1)N(Cc1ccccc1)C1CC1	-3.342%	6.494%
CCn1cnnc1CNC(=O)N1CCN(C)CC1C (stereo unspecified)	-4.655%	-0.774%
CN(C)S(=O)(=O)N(CCCO)c1ccccc1Br	-1.091%	-3.51%
O=C(Cn1ccnc1)Nc1ccccc1	-13.03%	3.502%
CCOCCC(=O)NC(C)c1nncn1C(C)C (stereo unspecified)	-6.597%	-7.719%
CC(O)C(=O)N1CCN(c2ccc(C#N)nc2)CC1 (stereo unspecified)	-7.262%	-2.988%
COc1cc(CNC(=O)Nc2ccnc(C)c2)ccn1	49.34%	55.37%
CCC1c2ccsc2CCN1CC(=O)N(C)C (stereo unspecified)	17.72%	27.68%
NCc1noc(-c2ccc(Cl)cc2F)n1	59.14%	57.93%
C1CCC(OCC2CCNCC2)C1	17.3%	4.17%
CN1CCNS1(=O)=O	-16.16%	-12.59%
Cc1cccc(C)c1-n1nnnc1SCC(N)=O	-3.326%	39.91%
O=C(Cn1cnc2ccccc21)N1CCCC1	2.707%	4.593%
Brc1ccc(C2CNC2)nc1	-5.799%	-94.12%
CCn1c(CN2CC[C@@H](O)C2)nnc1[C@H]1C[C@@H](N)C1	-22.34%	-14.77%
NCCCOC1CCN(C(=O)Cc2ccsc2)CC1	7.931%	24.66%
Cc1nc(NC(=O)NCCSCCCO)sc1C	15.83%	28.6%
CC(=O)c1cccc(OCC(=O)N2CCOCC2)c1	8.014%	1.506%
CC(CCc1ccco1)NS(=O)(=O)N(C)C (stereo unspecified)	-39.16%	-9.816%
CCC(CNC(=O)CCSCC(N)=O)c1ccccc1 (stereo unspecified)	2.051%	20.53%
CC(Nc1c[nH]c(=O)[nH]c1=O)c1ccccc1 (stereo unspecified)	15.87%	20.19%
Cn1cnnc1C(N)CO (stereo unspecified)	-9.175%	-3.723%
C1CC(OCCN2CCOCC2)CN1 (stereo unspecified)	-0.4949%	5.242%
O=C1NCCCCC1NS(=O)(=O)N1CCOCC1 (stereo unspecified)	-9.113%	-1.84%
N#Cc1ccccc1OCCNCC1CCCO1 (stereo unspecified)	19.76%	33.64%